Reference: US11077196B2, “Abuse-deterrent pharmaceutical composition” (priority 2016, dated 2021)

Experiments:
[1] = test system: laccase from Trametes villosa (TvL); experiment: Oxygen measurement of laccase catalysed oxidation of opioids (TvL); type: biochemical; conditions: TvL 10 U/ml, substrate 2 mg/ml, distilled water, room temperature, optical oxygen sensor
[2] = test system: laccase from Myceliophthora thermophila (MtL); experiment: Oxygen measurement of laccase catalysed oxidation of opioids (MtL); type: biochemical; conditions: MtL 10 U/ml, substrate 2 mg/ml, distilled water, room temperature, optical oxygen sensor
laccase = experiment: Thin layer chromatography of enzymatic conversion; type: biochemical; conditions: samples at 2, 10, 30, 60, 120 minutes of enzymatic reaction
[3] = test system: laccase from Myceliophthora thermophila; conditions: 2 mg/ml morphine in distilled water, MtL 78.3 U/ml, after 30 minutes

`CN1CC[C@]23c4c5ccc(O)c4O[C@H]2[C@@H](O)C=C[C@H]3[C@H]1C5` [morphine, 4,5[alpha]-epoxy-17-methyl-7-morphinen-3,6[alpha]-diol] was tested, and the “oxygen concentration in solution (laccase oxidation of the opioid)” value [1] was “clear decrease in the oxygen concentration”, the “oxygen concentration in solution (laccase oxidation of the opioid)” value [2] was “clear decrease in the oxygen concentration” and the “time after which the reference dot disappears on TLC (all converted)” value (laccase) was 30 min. The “morphine converted (GC-MS)” value [3] was “approx. 60%”.
